At least one compound was matched to its structure with a doubt left.
Tested on: HEK293 cells
Assay: Cell death (trypan blue) after induction of intron-controlled caspase 9
Type: cell-based, human
Conditions: HEK293 with SYNP-CASP9-INT, forskolin 10 μM
Experimental: Transfection was performed as previously described. DTT was added at 2 mM and forskolin was added at 10 μM. The latter was carried out to determine whether forskolin could induce the removal of the intron. Amongst other things, forskolin has potential gene therapy applications. Induction of intron removal was measured as function of cell death, with higher cell death an indicator of removal of the intron.
Experiments were performed as described in the methods namely, HEK or CHO-s cells were transfected with the aforementioned construct and incubated for 24 h. After this time the activating compound DTT or Forskolin was added, % cell death was then measured at 3, 5 and 24 h post-induction.
Induction of intron was measured as function of cell death, using the Countess II cell counter (Thermofisher). Cells were stained with trypan blue to ascertain cell viability. 10 μl of cell suspension was added to a Haemocytomer and analysed on the countess.

C=C[C@@]1(C)CC(=O)[C@]2(O)[C@@]3(C)[C@@H](O)CCC(C)(C)[C@@H]3[C@H](O)[C@H](OC(C)=O)[C@@]2(C)O1 [forskolin, Forskolin]
strength as inducer of intron splicing: weak inducer of splicing
time after treatment at which % of dead cells reaches the level of the positive control: 24 h

Reference: patent US11492618B2, “Expression control using a regulatable intron” (ASKLEPIOS BIOPHARMACEUTICAL, INC., priority 2017, dated 2022)
